Publication doi:10.1101/2021.08.20.456807
No constants are given. Whether binding was seen depends on the method and setting. In cells and extracts the contact can be indirect. Binding calls can cover weak binding; strength is not graded here.

By UniProt entry, the sequences of proteins in these tests, tags left out.
UniProt P08670: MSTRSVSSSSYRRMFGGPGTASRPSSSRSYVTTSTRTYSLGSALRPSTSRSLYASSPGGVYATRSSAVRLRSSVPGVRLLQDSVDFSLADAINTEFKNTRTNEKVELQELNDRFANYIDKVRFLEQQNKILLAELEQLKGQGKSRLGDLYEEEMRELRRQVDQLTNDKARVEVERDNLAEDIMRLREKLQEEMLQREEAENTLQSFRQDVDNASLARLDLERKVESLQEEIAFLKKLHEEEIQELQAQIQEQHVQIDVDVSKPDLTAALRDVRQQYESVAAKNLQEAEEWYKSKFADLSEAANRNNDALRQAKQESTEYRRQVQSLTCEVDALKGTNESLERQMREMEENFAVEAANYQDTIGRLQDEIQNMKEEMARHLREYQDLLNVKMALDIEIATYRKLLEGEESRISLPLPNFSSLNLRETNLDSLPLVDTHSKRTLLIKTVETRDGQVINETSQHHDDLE
UniProt Q9NZJ4: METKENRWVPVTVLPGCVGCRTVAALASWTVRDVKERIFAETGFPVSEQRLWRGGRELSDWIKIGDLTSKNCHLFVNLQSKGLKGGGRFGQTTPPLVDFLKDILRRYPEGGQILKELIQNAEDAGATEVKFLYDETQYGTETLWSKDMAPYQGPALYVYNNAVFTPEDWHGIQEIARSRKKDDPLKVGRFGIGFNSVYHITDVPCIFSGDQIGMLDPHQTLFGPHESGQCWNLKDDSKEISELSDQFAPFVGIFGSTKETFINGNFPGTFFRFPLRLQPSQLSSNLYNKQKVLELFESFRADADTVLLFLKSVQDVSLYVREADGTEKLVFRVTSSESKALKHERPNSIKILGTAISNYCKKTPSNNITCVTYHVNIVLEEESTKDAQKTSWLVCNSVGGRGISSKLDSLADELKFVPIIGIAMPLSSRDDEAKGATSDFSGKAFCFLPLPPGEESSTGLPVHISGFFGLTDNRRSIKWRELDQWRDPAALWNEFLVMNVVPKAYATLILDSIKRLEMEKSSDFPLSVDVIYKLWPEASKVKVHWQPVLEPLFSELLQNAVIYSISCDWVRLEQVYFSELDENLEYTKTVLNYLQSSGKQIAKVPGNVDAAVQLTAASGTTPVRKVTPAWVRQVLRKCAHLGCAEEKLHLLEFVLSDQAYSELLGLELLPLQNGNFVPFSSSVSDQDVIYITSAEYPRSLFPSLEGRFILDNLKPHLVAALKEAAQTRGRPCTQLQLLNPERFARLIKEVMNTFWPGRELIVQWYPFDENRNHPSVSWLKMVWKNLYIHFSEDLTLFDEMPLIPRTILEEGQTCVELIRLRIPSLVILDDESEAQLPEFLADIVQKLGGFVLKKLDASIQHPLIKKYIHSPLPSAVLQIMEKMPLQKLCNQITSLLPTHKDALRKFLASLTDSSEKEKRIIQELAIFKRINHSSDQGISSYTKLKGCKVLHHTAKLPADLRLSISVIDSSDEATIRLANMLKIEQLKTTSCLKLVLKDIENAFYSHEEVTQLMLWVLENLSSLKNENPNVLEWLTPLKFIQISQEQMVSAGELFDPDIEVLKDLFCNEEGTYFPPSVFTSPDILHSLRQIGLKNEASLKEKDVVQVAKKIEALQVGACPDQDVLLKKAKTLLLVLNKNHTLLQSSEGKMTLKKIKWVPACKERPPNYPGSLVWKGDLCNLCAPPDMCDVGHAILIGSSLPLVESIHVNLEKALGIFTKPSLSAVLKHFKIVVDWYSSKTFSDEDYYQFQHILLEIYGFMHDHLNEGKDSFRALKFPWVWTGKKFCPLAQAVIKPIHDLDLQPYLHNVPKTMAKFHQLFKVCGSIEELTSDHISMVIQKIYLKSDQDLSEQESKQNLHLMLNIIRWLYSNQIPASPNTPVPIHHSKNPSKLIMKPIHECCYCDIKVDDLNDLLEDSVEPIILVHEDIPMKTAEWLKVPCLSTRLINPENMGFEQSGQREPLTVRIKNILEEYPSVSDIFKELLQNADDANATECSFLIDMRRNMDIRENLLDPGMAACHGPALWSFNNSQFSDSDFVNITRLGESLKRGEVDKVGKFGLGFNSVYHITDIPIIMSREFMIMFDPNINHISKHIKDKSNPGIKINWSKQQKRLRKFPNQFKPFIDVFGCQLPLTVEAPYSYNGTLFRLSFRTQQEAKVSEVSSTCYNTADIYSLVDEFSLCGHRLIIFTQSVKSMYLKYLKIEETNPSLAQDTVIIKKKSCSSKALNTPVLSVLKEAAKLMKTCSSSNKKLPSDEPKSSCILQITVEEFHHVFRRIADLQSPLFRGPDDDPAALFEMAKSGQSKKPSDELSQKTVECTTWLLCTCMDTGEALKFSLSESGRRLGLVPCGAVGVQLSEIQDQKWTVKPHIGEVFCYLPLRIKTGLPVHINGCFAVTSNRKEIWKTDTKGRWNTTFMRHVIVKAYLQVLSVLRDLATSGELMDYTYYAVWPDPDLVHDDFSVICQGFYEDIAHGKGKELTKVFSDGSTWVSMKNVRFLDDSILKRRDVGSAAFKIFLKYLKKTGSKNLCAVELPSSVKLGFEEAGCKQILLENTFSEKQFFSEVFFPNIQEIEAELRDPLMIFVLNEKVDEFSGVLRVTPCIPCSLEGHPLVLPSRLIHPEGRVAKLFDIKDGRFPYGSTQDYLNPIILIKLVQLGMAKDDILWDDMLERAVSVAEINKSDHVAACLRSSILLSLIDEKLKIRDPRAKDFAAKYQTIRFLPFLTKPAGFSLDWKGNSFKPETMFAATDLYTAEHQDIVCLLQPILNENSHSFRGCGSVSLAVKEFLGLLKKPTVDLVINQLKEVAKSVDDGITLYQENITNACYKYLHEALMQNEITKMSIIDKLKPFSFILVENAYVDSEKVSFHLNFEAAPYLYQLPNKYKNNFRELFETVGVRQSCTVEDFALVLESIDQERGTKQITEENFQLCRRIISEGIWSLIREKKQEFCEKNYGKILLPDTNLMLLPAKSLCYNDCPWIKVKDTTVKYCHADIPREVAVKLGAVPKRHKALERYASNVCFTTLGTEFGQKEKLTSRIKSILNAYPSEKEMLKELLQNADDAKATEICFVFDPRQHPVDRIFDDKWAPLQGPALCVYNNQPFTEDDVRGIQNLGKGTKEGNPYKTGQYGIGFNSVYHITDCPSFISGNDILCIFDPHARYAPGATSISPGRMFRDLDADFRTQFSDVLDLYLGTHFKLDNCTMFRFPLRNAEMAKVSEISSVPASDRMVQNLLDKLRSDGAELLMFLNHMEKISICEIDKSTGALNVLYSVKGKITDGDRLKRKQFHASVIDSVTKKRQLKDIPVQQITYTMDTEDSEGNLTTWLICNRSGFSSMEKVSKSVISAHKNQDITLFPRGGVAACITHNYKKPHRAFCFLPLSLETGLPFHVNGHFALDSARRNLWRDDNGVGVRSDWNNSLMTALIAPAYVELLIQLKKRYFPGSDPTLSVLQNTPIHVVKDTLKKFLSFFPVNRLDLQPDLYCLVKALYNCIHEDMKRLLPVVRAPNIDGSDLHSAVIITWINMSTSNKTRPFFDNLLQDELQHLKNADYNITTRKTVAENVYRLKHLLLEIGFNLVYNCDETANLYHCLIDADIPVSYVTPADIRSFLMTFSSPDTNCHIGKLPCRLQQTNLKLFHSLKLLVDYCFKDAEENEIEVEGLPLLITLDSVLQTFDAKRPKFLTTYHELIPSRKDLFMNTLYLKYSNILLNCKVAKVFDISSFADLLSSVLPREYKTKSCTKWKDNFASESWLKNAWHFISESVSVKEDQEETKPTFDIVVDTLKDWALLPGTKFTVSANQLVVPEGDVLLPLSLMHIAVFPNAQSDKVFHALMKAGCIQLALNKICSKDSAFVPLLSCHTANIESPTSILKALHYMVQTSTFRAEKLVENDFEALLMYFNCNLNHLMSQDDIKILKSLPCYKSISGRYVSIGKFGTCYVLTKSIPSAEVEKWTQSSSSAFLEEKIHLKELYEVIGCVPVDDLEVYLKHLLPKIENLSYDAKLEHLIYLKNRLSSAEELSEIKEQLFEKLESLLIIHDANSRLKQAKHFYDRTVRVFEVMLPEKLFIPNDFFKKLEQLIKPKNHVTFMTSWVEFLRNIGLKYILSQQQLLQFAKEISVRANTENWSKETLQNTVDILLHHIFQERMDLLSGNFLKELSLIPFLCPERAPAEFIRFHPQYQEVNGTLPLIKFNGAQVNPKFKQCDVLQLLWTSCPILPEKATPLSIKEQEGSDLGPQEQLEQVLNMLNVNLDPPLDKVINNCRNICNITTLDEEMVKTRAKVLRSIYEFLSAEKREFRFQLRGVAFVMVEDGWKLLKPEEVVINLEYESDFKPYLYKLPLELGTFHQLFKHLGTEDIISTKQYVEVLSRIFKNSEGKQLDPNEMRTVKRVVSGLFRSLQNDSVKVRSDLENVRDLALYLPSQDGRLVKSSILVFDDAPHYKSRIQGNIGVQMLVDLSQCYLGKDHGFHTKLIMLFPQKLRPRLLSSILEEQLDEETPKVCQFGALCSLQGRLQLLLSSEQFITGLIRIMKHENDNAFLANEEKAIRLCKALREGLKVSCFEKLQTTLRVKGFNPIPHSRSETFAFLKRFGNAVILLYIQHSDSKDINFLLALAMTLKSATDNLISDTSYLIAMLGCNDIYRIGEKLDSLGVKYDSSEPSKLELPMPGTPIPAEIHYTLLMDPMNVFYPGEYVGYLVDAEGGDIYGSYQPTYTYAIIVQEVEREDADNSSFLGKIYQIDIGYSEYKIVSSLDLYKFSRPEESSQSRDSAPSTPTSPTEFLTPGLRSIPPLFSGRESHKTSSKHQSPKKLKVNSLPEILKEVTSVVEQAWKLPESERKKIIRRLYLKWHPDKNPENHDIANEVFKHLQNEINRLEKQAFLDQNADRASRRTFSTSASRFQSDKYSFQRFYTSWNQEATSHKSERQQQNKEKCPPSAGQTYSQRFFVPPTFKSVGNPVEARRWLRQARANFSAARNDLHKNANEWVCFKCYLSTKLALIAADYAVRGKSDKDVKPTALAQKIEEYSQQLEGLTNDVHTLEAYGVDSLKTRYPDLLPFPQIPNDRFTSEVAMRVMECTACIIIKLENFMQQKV

Columns and labels:
Experiment in all cases: co-IP
[1] = target: vimentin (human (endogenous in SH-SY5Y)) (UniProt P08670)
[2] = target: sacsin (human (endogenous in SH-SY5Y)) (UniProt Q9NZJ4)
[3] = target: T1, neurofascin (human (endogenous in SH-SY5Y)) (UniProt O94856)
T1 sequence: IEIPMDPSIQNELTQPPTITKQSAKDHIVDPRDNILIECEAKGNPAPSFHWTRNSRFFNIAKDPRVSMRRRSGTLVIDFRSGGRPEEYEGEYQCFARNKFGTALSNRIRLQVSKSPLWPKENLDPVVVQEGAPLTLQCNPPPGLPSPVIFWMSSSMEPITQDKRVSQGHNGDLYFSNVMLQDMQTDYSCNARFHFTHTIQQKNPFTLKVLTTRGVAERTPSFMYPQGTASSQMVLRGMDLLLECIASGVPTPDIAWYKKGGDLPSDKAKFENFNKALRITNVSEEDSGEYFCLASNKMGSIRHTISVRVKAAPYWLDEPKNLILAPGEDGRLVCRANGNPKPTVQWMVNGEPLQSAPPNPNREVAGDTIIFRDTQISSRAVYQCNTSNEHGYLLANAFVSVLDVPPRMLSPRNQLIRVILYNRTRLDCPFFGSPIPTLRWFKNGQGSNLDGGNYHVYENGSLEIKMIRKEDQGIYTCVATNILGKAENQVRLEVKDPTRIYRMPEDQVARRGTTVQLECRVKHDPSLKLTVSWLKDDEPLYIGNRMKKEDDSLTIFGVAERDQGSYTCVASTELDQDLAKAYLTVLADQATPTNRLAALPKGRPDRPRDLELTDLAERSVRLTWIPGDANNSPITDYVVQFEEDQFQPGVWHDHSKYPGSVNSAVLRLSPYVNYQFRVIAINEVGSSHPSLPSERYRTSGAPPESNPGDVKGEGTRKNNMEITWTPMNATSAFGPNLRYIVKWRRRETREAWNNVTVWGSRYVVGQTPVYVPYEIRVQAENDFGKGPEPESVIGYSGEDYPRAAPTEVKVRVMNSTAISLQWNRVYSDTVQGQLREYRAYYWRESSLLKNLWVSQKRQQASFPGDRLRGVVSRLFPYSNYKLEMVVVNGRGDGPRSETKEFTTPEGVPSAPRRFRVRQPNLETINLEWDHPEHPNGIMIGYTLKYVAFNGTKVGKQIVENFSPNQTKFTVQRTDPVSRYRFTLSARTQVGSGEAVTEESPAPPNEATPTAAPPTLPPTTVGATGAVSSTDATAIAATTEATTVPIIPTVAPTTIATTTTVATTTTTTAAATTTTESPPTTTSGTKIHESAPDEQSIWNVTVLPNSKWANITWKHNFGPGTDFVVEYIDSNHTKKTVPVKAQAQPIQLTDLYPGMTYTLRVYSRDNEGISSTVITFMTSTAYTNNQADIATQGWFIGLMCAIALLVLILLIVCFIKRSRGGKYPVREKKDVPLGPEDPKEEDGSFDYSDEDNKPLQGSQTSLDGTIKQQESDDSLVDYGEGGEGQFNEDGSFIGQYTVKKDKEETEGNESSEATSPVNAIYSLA

Measured: binding

vinculin (from UniProt P18206-2)
binds: all assays above
